Measured values taken from patent US8245708B2, “Methods, devices and formulations for targeted endobronchial therapy” (The Research Foundation of State University of New York, priority 2002, dated 2012).

Assay: Aerosol delivery of antibiotics, nebulizer at distal Y position, three nebulizers (second experiment)
Conditions: T-BIRD, PORTEX nebulizer, continuous, humidity ON; percentage of nebulizer charge

CN[C@H](CC(C)C)C(=O)N[C@H]1C(=O)N[C@@H](CC(N)=O)C(=O)N[C@H]2C(=O)N[C@H]3C(=O)N[C@H](C(=O)N[C@H](C(=O)O)c4cc(O)cc(O)c4-c4cc3ccc4O)[C@H](O)c3ccc(c(Cl)c3)Oc3cc2cc(c3O[C@@H]2O[C@H](CO)[C@@H](O)[C@H](O)[C@H]2O[C@H]2C[C@](C)(N)[C@H](O)[C@H](C)O2)Oc2ccc(cc2Cl)[C@H]1O [vancomycin]
% of EXPIRATORY FILT.: 7.9%
